Experimental findings from PubChem BioAssay AID2685 (National Center for Advancing Translational Sciences (NCATS), 2010) are described below.

The list shows a part of the results. Further columns of the screen follow, without active or inactive calls. The list favours compounds with an active or inconclusive main result. Words in brackets tell the shape of the fitted curve; partial curves, single points and poor fits give uncertain potencies.

As a reminder, the AC50 is the midpoint of the concentration-response curve, whichever way the signal moves. Read a high AC50 as weaker potency.

This assay in a line: qHTS Assay for Lipid Storage Modulators in Drosophila S3 Cells.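 On cell number change: cells counted by Cell Tracker Red CMTPX staining in the red channel.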 The conditions noted are these: BODIPY lipid droplet fluorescence, 18-24 h; for cell number change: measured here: cell count max response, cells fed with added oleic acid. A digest of the protocol: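 Drosophila S3 cells got compounds at several concentrations plus oleic acid (400 uM solution). Laser-scanning cytometry with 488 nm excitation read lipid droplets at 500-530 nm and cells at 575-640 nm. Percent activity was relative to 20 uM Triacsin C.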
On the technique in general: In qHTS, concentration-response curves come from the screen itself.

[1] abbreviates: measured here: lipid fluorescence (Fed channel) AC50, cells fed with added oleic acid.
The mark [2] stands for this setting: measured here: cell number channel AC50, cells fed with added oleic acid.

On to `CCN(C(=O)CN1C(=O)S/C(=C\c2ccccc2OC)C1=O)C1CCS(=O)(=O)C1` (centres undefined), for which the cell number change is -6.87%. The AC50 under setting [1] was 16.4 µM [rising, partial curve].

Regarding `Cc1ccc2cc3c(NC(=O)C4CCCO4)nn(CC(C)C)c3nc2c1` (centres undefined), the cell number change was 3.57%. Besides, the AC50 under setting [1] was 4.11 µM [rising, single point].

Regarding `C=Cc1ccc2c(c1)N(C)C(=C)S2`, the cell number change was -99%.

As to `CNc1nc(OCC(F)(F)F)nc(N2CCOCC2)n1`, the cell number change amounted to 5.98%.

Consider `CCCCn1c(N)c(N(CCC(C)C)C(=O)COC(=O)c2ccc(CC)cc2)c(=O)[nH]c1=O`, for which the concentration at half-maximal activity (AC50) under setting [1] was 29.1 µM [falling, single point].

With `CCN(CC)CCNc1ncnc2c1sc1nc(N3CCOCC3)c3c(c12)CCCC3`, the cell number change was -28.7%. Besides, the AC50 under setting [1] was 2.06 µM [falling, single point].

With `NC(=O)c1ccccc1OCc1nnc(-c2ccccc2Br)o1`, the cell number change stood at 7.92%. Also, the AC50 under setting [1] is 0.058 µM [rising, full curve, poor fit].

In the case of `C/C(=N\NC(=O)c1cc(-c2ccco2)nc2ccccc12)c1cccnc1`, the AC50 under setting [2] is 0.103 µM [rising, partial curve, poor fit].

For `Cc1ccc(NC(=O)Cc2n[nH]c(=S)n2C)cc1`, the cell number change is -1.18%.

Regarding `CCCCn1c(=O)[nH]c(=O)c2c1nc(-c1ccc(CC)c([N+](=O)[O-])c1)n2C`, the cell number change came out at 69.4%. Further, the AC50 under setting [2] was 25.9 µM [rising, single point].

As for `Cc1cc(CNC(=O)C2CCC(=O)N(Cc3ccccc3F)C2)nn1C` (centres undefined), the cell number change was -6.23%. For the same compound, the AC50 under setting [1] is 6.51 µM [rising, single point].

As for `N#Cc1ccc(C(=O)Nc2nc(-c3cccs3)c(C(=O)C(F)(F)F)s2)cc1`, the cell number change was -47%. The AC50 under setting [2] is 16.4 µM [falling, partial curve]. Besides, under setting [1], the AC50 is 18.4 µM [falling, partial curve].

Regarding `Cc1ncc(CO)c(/C=N/NC(=S)Nc2ccc(F)cc2)c1O`, the cell number change was -4.58%. Besides, under setting [1], the AC50 was 32.6 µM [falling, single point].

Regarding `COc1ccc(Nc2ccc(N3C(=O)CCCC3=O)cc2[N+](=O)[O-])c(OC)c1`, the cell number change stood at 147%. For the same compound, the AC50 under setting [2] was 14.6 µM [rising, partial curve]. For the same compound, under setting [1], the AC50 is 3.66 µM [rising, full curve].

For `CCN(CC)c1ccc2c(c1)OC(N)=C(C#N)C2c1cccnc1` (centres undefined), the cell number change was determined as 38.9%. For the same compound, the half-maximal activity concentration (AC50) under setting [2] is 29.1 µM [rising, partial curve, poor fit].

Turning to `CC(C)NC(=O)COc1ccc(S(=O)(=O)N2CCOCC2)cc1`, the cell number change is -41.8%. The AC50 under setting [2] was 0.184 µM [falling, full curve].

Turning to `CC(C)(C)c1ccc(C(=O)NC(=S)Nc2nc3c(s2)CCCC3)cc1`, the cell number change was determined as 4.78%. Further, the AC50 under setting [1] is 6.51 µM [falling, single point].

Turning to `Cc1ccc(NC(=O)N2CCC(c3nc4c(nnn4Cc4c(F)cccc4Cl)c(=O)[nH]3)CC2)cc1`, the cell number change is 127%. The concentration at half-maximal activity (AC50) under setting [2] is 10.3 µM [rising, partial curve]. Besides, the AC50 under setting [1] was 2.06 µM [rising, partial curve].

On to `COc1ccccc1N1CC(C(=O)OCC(=O)Nc2c(C)cccc2C)CC1=O` (centres undefined), for which the cell number change was determined as 19.7%. Also, the concentration at half-maximal activity (AC50) under setting [1] was 3.66 µM [rising, full curve].

Take `O=C(Nc1ccc(Cn2cccn2)cc1)c1ccc(COc2cccc(Br)c2)cc1`: the cell number change came to 51.8%. In addition, the AC50 under setting [2] was 3.26 µM [rising, full curve, poor fit]. Moreover, under setting [1], the AC50 is 2.59 µM [rising, partial curve].

Take `CCN1C(=O)c2cccc3c(NS(=O)(=O)c4ccc(NC(C)=O)cc4)ccc1c23`: the cell number change is -2.51%. In addition, the AC50 under setting [2] was 2.91 µM [rising, single point].

Regarding `O=C(NCc1ccco1)C1Cc2ccccc2CN1C(=O)c1ccco1` (centres undefined), under setting [2], the AC50 was 0.461 µM [falling, single point].

Consider `Cc1cc(C)cc(N(CC(=O)NCc2ccc3c(c2)OCO3)C(=O)CCC(=O)Nc2ccccn2)c1`, for which the cell number change was determined as 28.3%. The concentration at half-maximal activity (AC50) under setting [1] is 5.8 µM [rising, partial curve].

Regarding `CCOC(=O)CN1C(=O)S/C(=C/c2ccc3c(c2)n(C)c(=O)n3C)C1=O`, the cell number change is -40.7%. The AC50 under setting [1] is 29.1 µM [falling, single point].

For `O=C(Nc1cccc(-c2csc(Nc3cccc(C(F)(F)F)c3)n2)c1)c1ccccc1`, the cell number change was -0.982%. Further, the concentration at half-maximal activity (AC50) under setting [1] is 0.164 µM [rising, full curve].

Turning to `CC(C)C(NC(=O)c1ccccc1)C(=O)NC1CCCc2ccccc21` (centres undefined), the cell number change was -36.6%.

As for `Cc1ccc(C(O)CN2C3=NCCN3c3ccccc32)cc1` (centres undefined), the cell number change was -10.9%. For the same compound, under setting [2], the AC50 is 0.651 µM [falling, single point]. For the same compound, the AC50 under setting [1] is 0.116 µM [falling, full curve, poor fit].

As for `CCOC(=O)N1CCN(C(=O)c2c(N)no[n+]2[O-])CC1`, the cell number change was 147%. For the same compound, under setting [2], the AC50 is 0.731 µM [rising, single point]. Besides, the AC50 under setting [1] is 29.1 µM [rising, single point].

For `CCOC(=O)C1(C(C)(C)CC)CC(CSc2nc3ccccc3[nH]2)OC1=O` (centres undefined), the cell number change was -22.4%. Also, the AC50 under setting [1] is 29.1 µM [falling, single point].

Regarding `CC(=O)Nc1ccc(C(=O)OCC(=O)NCc2cccs2)cc1`, the cell number change is -0.933%. Besides, the AC50 under setting [2] was 0.00651 µM [falling, full curve, poor fit]. The AC50 under setting [1] was 0.00731 µM [falling, full curve, poor fit].

As to `Cn1cc(Cl)c(-c2n[nH]c(=S)n2-c2ccccc2)n1`, the cell number change is 0.804%. Further, under setting [1], the AC50 was 3.66 µM [rising, single point].

Turning to `Cn1nc(C(=O)Nc2ccc(S(=O)(=O)N3CCCC3)cc2)ccc1=O`, the cell number change is 8.64%. Moreover, the AC50 under setting [1] is 6.51 µM [rising, single point].

Take `COc1ccc(-c2cn(-c3ccc(C)cc3C)c(=O)[nH]2)cc1OC`: the cell number change is -22.6%.

Regarding `COC(=O)c1ccc(C(=O)Nc2cc(Cl)ccc2Cl)cc1NC(=O)c1ccc(N(C)C)cc1`, the cell number change stood at 7.5%.

Regarding `CCc1ccc(N2CC(C(=O)Nc3cc(C)on3)CC2=O)cc1` (centres undefined), the cell number change stood at 20.1%. Besides, the AC50 under setting [1] was 0.731 µM [rising, full curve, poor fit].

In the case of `CC1=C(C#N)C(C(F)(F)F)(C(F)(F)F)N=C(c2ccco2)N1`, the cell number change worked out at 6.68%. Besides, the AC50 under setting [1] is 5.8 µM [rising, full curve].

In the case of `COC(=O)CCC(=O)OC1(C)C(=O)C2=CN(CCN3CCOCC3)C(c3ccc(OC)cc3)=CC2=C(Br)C1=O` (centres undefined), the cell number change came out at 10.2%. In addition, under setting [1], the concentration at half-maximal activity (AC50) is 3.66 µM [rising, single point].

Regarding `Cc1ccc(C(=O)NNC(=O)c2cccc(S(=O)(=O)N3CCN(c4ccccc4)CC3)c2)cc1`, the cell number change was -18.2%. Besides, under setting [1], the AC50 is 29.1 µM [falling, single point].
